# Experimental data reported in the supplement of paper PMC4635364.
# Counter-ions that a name gives are not always drawn. This is one part of the list. Single values are uncertain here, since repeats match poorly.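 Human fetal ventral-midbrain neural progenitor line ReNCell VM, differentiated without mitogens. Images stained for doublecortin (early neurons) or tyrosine hydroxylase (dopaminergic neurons) were scored by blinded raters against untreated wells (0 = no change). Repeats and both raters were averaged, and compounds averaging 2 or higher were picked as hits for retesting.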
# Assays:
# ReNCell VM [1] = experiment: neuronal differentiation score (DCX+ cell fraction vs untreated, manual image score) (score (-3 to 3)); higher = more neuronal differentiation; details: 2 uM, 2 weeks
# ReNCell VM [2] = experiment: dopaminergic neuron differentiation score (TH+ cell fraction vs untreated, manual image score) (score (0 to 3)); higher = more TH+ dopaminergic neuron differentiation; details: 2 uM, 4 weeks, BDNF 10 ng/ml + GDNF 10 ng/ml
structure (smiles),measurement,setting,value
N=C(N)NC(=O)c1nc(Cl)c(N)nc1N,neuronal differentiation score,ReNCell VM [1]; library: Spectrum,inactive: 0
same,dopaminergic neuron differentiation score,ReNCell VM [2]; library: Spectrum,inactive: 0
CC(N)=O [Acetamide],neuronal differentiation score,ReNCell VM [1]; library: LOPAC,inactive: 0
same,dopaminergic neuron differentiation score,ReNCell VM [2]; library: LOPAC,inactive: 0
C[n+]1cccc(C(=O)[O-])c1,neuronal differentiation score,ReNCell VM [1]; library: Spectrum,inactive: 0
same,dopaminergic neuron differentiation score,ReNCell VM [2]; library: Spectrum,inactive: 0
O=C1c2c(O)cccc2Cc2cccc(O)c21 [Anthralin],neuronal differentiation score,ReNCell VM [1]; library: Prestwick,inactive: 0
same,dopaminergic neuron differentiation score,ReNCell VM [2]; library: Prestwick,inactive: 0
COC1=C[C@@H](C)[C@@H]2C[C@H]3OC(=O)C[C@H]4C(C)=C(OC)C(=O)[C@H]([C@@]2(C)C1=O)[C@@]34C [quassin],neuronal differentiation score,ReNCell VM [1]; library: Natural,inactive: 0
same,dopaminergic neuron differentiation score,ReNCell VM [2]; library: Natural,inactive: 0
O=c1cc(-c2cccc3c2Sc2ccccc2S3)oc(N2CCOCC2)c1,neuronal differentiation score,ReNCell VM [1]; library: Tocriscreen,inactive: 0
same,dopaminergic neuron differentiation score,ReNCell VM [2]; library: Tocriscreen,inactive: 0
NCCc1cc[nH]n1 [Betazole hydrochloride],neuronal differentiation score,ReNCell VM [1]; library: Prestwick,inactive: 0
same,dopaminergic neuron differentiation score,ReNCell VM [2]; library: Prestwick,inactive: 0
N#C/C(=C\c1ccc(O)c(O)c1)C(=O)NCCCCc1ccccc1,neuronal differentiation score,ReNCell VM [1]; library: Tocriscreen,inactive: 0
same,dopaminergic neuron differentiation score,ReNCell VM [2]; library: Tocriscreen,inactive: 1
CN1CCN2c3ncccc3Cc3ccccc3C2C1 (configuration not stated) [Mirtazapine],neuronal differentiation score,ReNCell VM [1]; library: Prestwick,inactive: 0
same,dopaminergic neuron differentiation score,ReNCell VM [2]; library: Prestwick,inactive: 0
COc1ccccc1OCC(O)CO (configuration not stated),neuronal differentiation score,ReNCell VM [1]; library: Spectrum,inactive: 0
same,dopaminergic neuron differentiation score,ReNCell VM [2]; library: Spectrum,inactive: 0
CS(=O)(=O)c1ccc(C2=C(c3ccccc3)C(=O)OC2)cc1 [Rofecoxib],neuronal differentiation score,ReNCell VM [1]; library: Prestwick,inactive: 0
same,dopaminergic neuron differentiation score,ReNCell VM [2]; library: Prestwick,inactive: 0
O=c1c(O)c(-c2ccc(O)cc2O)oc2cc(O)cc(O)c12,neuronal differentiation score,ReNCell VM [1]; library: Spectrum,inactive: 0
same,dopaminergic neuron differentiation score,ReNCell VM [2]; library: Spectrum,inactive: 0
CCOC(=O)[C@H](CCc1ccccc1)N[C@@H](C)C(=O)N1CCC[C@H]1C(=O)O,neuronal differentiation score,ReNCell VM [1]; library: Spectrum,inactive: 0
same,dopaminergic neuron differentiation score,ReNCell VM [2]; library: Spectrum,inactive: 0
O=C1CN(/N=C/c2ccc(-c3ccc([N+](=O)[O-])cc3)o2)C(=O)N1,neuronal differentiation score,ReNCell VM [1]; library: Spectrum,inactive: 0
same,dopaminergic neuron differentiation score,ReNCell VM [2]; library: Spectrum,inactive: 0
O=C1c2ccccc2C(=O)c2c(O)c(O)cc(O)c21,neuronal differentiation score,ReNCell VM [1]; library: Spectrum,inactive: 0
same,dopaminergic neuron differentiation score,ReNCell VM [2]; library: Spectrum,active: 3
CCCCOc1ccc(OCCCN2CCOCC2)cc1 [Pramoxine hydrochloride],neuronal differentiation score,ReNCell VM [1]; library: Prestwick,inactive: 0
same,dopaminergic neuron differentiation score,ReNCell VM [2]; library: Prestwick,inactive: 0
CC1=C(C(=O)O)N2C(=O)[C@@H](NC(=O)[C@H](N)c3ccccc3)[C@H]2SC1 [Cephalexin monohydrate],neuronal differentiation score,ReNCell VM [1]; library: Prestwick,inactive: 0
same,dopaminergic neuron differentiation score,ReNCell VM [2]; library: Prestwick,inactive: 0
COC(=O)/C=C/C(C)=C\C=C\C(C)=C\C=C\C=C(C)\C=C\C=C(C)\C=C\C(=O)O,neuronal differentiation score,ReNCell VM [1]; library: Spectrum,inactive: 0
same,dopaminergic neuron differentiation score,ReNCell VM [2]; library: Spectrum,inactive: 0
Cc1nc2n(c(=O)c1CCN1CCC(c3noc4cc(F)ccc34)CC1)CCCC2,neuronal differentiation score,ReNCell VM [1]; library: Spectrum,inactive: 0
same,dopaminergic neuron differentiation score,ReNCell VM [2]; library: Spectrum,inactive: 0
O=C(CCCN1CCN(c2ccccn2)CC1)c1ccc(F)cc1,neuronal differentiation score,ReNCell VM [1]; library: Spectrum,inactive: 0
same,dopaminergic neuron differentiation score,ReNCell VM [2]; library: Spectrum,inactive: 0
O=C(O)c1ccccc1OP(=O)(O)O [Fosfosal],neuronal differentiation score,ReNCell VM [1]; library: Prestwick,inactive: 0
same,dopaminergic neuron differentiation score,ReNCell VM [2]; library: Prestwick,inactive: 0
C=C1C[C@]23C[C@@]1(O)CC[C@H]2[C@@]12C=C[C@H](O)[C@@](C)(C(=O)O1)[C@H]2[C@@H]3C(=O)O [gibberellic acid],neuronal differentiation score,ReNCell VM [1]; library: Natural,inactive: 0
same,dopaminergic neuron differentiation score,ReNCell VM [2]; library: Natural,inactive: 0
CO[C@@]1(NC(=O)Cc2cccs2)C(=O)N2C(C(=O)O)=C(COC(N)=O)CS[C@@H]21,neuronal differentiation score,ReNCell VM [1]; library: Spectrum,inactive: 0
same,dopaminergic neuron differentiation score,ReNCell VM [2]; library: Spectrum,inactive: 0
N[C@@H](Cc1c[nH]c2ccccc12)C(=O)O,neuronal differentiation score,ReNCell VM [1]; library: Spectrum,inactive: 0
same,dopaminergic neuron differentiation score,ReNCell VM [2]; library: Spectrum,inactive: 0
Cc1c(OCC(F)(F)F)ccnc1C[S+]([O-])c1nc2ccccc2[nH]1 (configuration not stated),neuronal differentiation score,ReNCell VM [1]; library: Spectrum,inactive: 0
same,dopaminergic neuron differentiation score,ReNCell VM [2]; library: Spectrum,inactive: 0
Nc1ccccc1S(N)(=O)=O [2-Aminobenzenesulfonamide],neuronal differentiation score,ReNCell VM [1]; library: Prestwick,inactive: 1
same,dopaminergic neuron differentiation score,ReNCell VM [2]; library: Prestwick,inactive: 0
CCCCc1nc(Cl)c(CO)n1Cc1ccc(-c2ccccc2-c2nnn[nH]2)cc1,neuronal differentiation score,ReNCell VM [1]; library: Spectrum,inactive: 0
same,dopaminergic neuron differentiation score,ReNCell VM [2]; library: Spectrum,inactive: 0
CC(=O)OCC(=O)[C@@]1(O)CC[C@H]2[C@@H]3CCC4=CC(=O)CC[C@]4(C)[C@H]3C(=O)C[C@@]21C,neuronal differentiation score,ReNCell VM [1]; library: Spectrum,inactive: 0
same,dopaminergic neuron differentiation score,ReNCell VM [2]; library: Spectrum,inactive: 1
"CN1C2CCC1CC(NC(=O)c1nn(C)c3ccccc13)C2 (configuration not stated) [LY-278,584 maleate]",neuronal differentiation score,ReNCell VM [1]; library: LOPAC,inactive: 0
same,dopaminergic neuron differentiation score,ReNCell VM [2]; library: LOPAC,inactive: 0
O=C1Cc2cc(CCN3CCN(c4nsc5ccccc45)CC3)c(Cl)cc2N1,neuronal differentiation score,ReNCell VM [1]; library: Spectrum,inactive: 0
same,dopaminergic neuron differentiation score,ReNCell VM [2]; library: Spectrum,inactive: 0
O=C(O)c1cccc(O)c1O,neuronal differentiation score,ReNCell VM [1]; library: Spectrum,inactive: 0
same,dopaminergic neuron differentiation score,ReNCell VM [2]; library: Spectrum,inactive: 0
CCN(CC)C(=O)c1ccc(O)c(OC)c1,neuronal differentiation score,ReNCell VM [1]; library: Spectrum,inactive: 0
same,dopaminergic neuron differentiation score,ReNCell VM [2]; library: Spectrum,inactive: 0
CCN(CC)CCNC(C(=O)OCCC(C)C)c1ccccc1 (configuration not stated),neuronal differentiation score,ReNCell VM [1]; library: Spectrum,inactive: 0
same,dopaminergic neuron differentiation score,ReNCell VM [2]; library: Spectrum,inactive: 0
NCCS,neuronal differentiation score,ReNCell VM [1]; library: Spectrum,inactive: 0
same,dopaminergic neuron differentiation score,ReNCell VM [2]; library: Spectrum,inactive: 0
NC(=O)c1ncn([C@@H]2O[C@H](CO)[C@@H](O)[C@H]2O)c1O [Mizoribine],neuronal differentiation score,ReNCell VM [1]; library: LOPAC,inactive: 0
same,dopaminergic neuron differentiation score,ReNCell VM [2]; library: LOPAC,inactive: 0
N[C@@H](Cc1c[nH]c2ccccc12)C(=O)O [L-Tryptophan],neuronal differentiation score,ReNCell VM [1]; library: LOPAC,inactive: 0
same,dopaminergic neuron differentiation score,ReNCell VM [2]; library: LOPAC,inactive: 0

# Reformatted: entries from further up.
structure (smiles) | measurement | setting | value
CC1=C(C(=O)O)N2C(=O)[C@@H](NC(=O)[C@H](N)c3ccccc3)[C@H]2SC1 [Cephalexin monohydrate] | neuronal differentiation score | ReNCell VM [1]; library: Prestwick | inactive: 0
same | dopaminergic neuron differentiation score | ReNCell VM [2]; library: Prestwick | inactive: 0
COC(=O)/C=C/C(C)=C\C=C\C(C)=C\C=C\C=C(C)\C=C\C=C(C)\C=C\C(=O)O | neuronal differentiation score | ReNCell VM [1]; library: Spectrum | inactive: 0
same | dopaminergic neuron differentiation score | ReNCell VM [2]; library: Spectrum | inactive: 0
